The source of these data is PubChem BioAssay AID493014 (National Center for Advancing Translational Sciences (NCATS), 2011).

The list shows a part of the results. The main result of the screen is listed elsewhere. These columns were measured beside it and carry no call. Most of these compounds were active or inconclusive in the main read-out, so they are no random draw. Words in brackets tell the shape of the fitted curve; partial curves, single points and poor fits give uncertain potencies.

The AC50 is the concentration at which the activity in the assay is half-maximal.

A short description of this experiment: qHTS Assay to Find Inhibitors of Chronic Active B-Cell Receptor Signaling. Conditions: ABC-DLBCL IkBa-CBG/CBR reporter, luminescence ratio (green luciferase fused to IkBa over red control in TMD8 lymphoma cells), 4 h. Summed up:
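TMD8 human ABC-DLBCL cells with doxycycline-inducible IκBα–green luciferase fusion and unfused red luciferase, in 0.5% FBS medium; compounds up to 46 uM, 4 h at 37C. Green/red luminescence ratio, filter-overlap corrected, fitted to concentration-response curves.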
A general note: qHTS replaces the single test concentration by a dilution series.

Setting [1] is: measured here: CBR red luminescence, cell number.
[2] abbreviates: measured here: IkBa-CBG green luminescence.

In the case of `Cc1ccc2nsnc2c1S(=O)(=O)N1CCN(C(=O)C2CCCO2)CC1` (stereo not given), under setting [1], the concentration at half-maximal activity (AC50) is 18.4 µM [rising, partial curve, poor fit]. In the case of `O=C(O)CNS(=O)(=O)c1cccc2nsnc12`, the AC50 under setting [1] is 4.61 µM [rising, full curve, poor fit]. The same measure, in the same setting: with `Cc1nn(C)cc1CN1CCC(n2nccc2NC(=O)CCCc2ccccc2)CC1` the figure was 1.26 µM [rising, full curve]. On to `CCn1c(/C=N/Nc2ccc(C(=O)O)cc2)nc2ccccc21`, for which the AC50 reads like this: under setting [1], 0.0259 µM [falling, full curve, poor fit]; under setting [2], 1.03 µM [rising, full curve, poor fit].

Take `NC(=O)C1CC12c1ccccc1-c1ccccc12` (stereo not given): the AC50 under setting [1] is 4.47 µM [rising, partial curve, poor fit].

Turning to `Cc1ccc(C(=O)OCc2cc(=O)n3c(C)csc3n2)s1`, the AC50 under setting [1] is 4.11 µM [rising, partial curve]. As to `COc1ccc(-c2cc(C(=O)N3CCOCC3)c3cc(C)ccc3n2)cc1`, under setting [1], the AC50 is 0.058 µM [falling, full curve, poor fit]. Take `CNC(=O)c1ccc(NC(=O)CN2c3cccc4cccc(c34)S2(=O)=O)cc1`: under setting [1], the AC50 was 14.6 µM [rising, partial curve]. For the compound `Cc1ccc(CN2CCC(N3CCC(C(=O)NCC4CCCO4)CC3)CC2)o1` (stereo not given), the AC50 under setting [1] was 35.5 µM [falling, single point]. With `O=C(N[C@H]1C/C=C\C[C@H](CC(=O)N(CCO)Cc2ccccc2)C(=O)NC[C@H](c2ccccc2)OC1=O)OCC1c2ccccc2-c2ccccc21`, the AC50 under setting [1] is 2.59 µM [falling, single point]. The same measure, in the same setting: with `O=C(CSc1n[nH]c(-c2ccc(S(=O)(=O)NC3CCCCC3)cc2)n1)N1CCCC1` the figure was 35.5 µM [falling, partial curve, poor fit]; with `CCOC(=O)CNC(=O)c1nn(-c2cccc(OC)c2)c(=O)c2ccccc12`, 5.8 µM [rising, partial curve, poor fit]. For the compound `C/C(=N\NC(=O)c1cc(C)nc2ccccc12)c1ccco1`, the half-maximal activity concentration (AC50) under setting [1] is 35.5 µM [rising, single point] and the AC50 under setting [2] was 35.5 µM [falling, single point]. In the case of `COCCNC(=O)c1onc(CCl)c1C(=O)OC`, under setting [1], the AC50 is 22.4 µM [falling, single point]. On to `Cc1ccccc1C(=O)NCC(=O)OC(C)C(=O)NC(C)CCc1ccccc1` (stereo not given), for which the AC50 under setting [1] is 9.2 µM [rising, partial curve, poor fit]. Regarding `CCOc1ccccc1NC(=O)C1Cc2ccccc2CN1S(C)(=O)=O` (stereo not given), the AC50 under setting [1] was 35.5 µM [rising, single point].

As for `COC(=O)C1CCN(C(=O)C23CCC(C)(C(=O)O2)C3(C)C)CC1` (stereo not given), under setting [1], the AC50 is 0.731 µM [falling, full curve, poor fit]. As for `COc1cc(CC(=O)OCC(=O)Nc2ccc(N(C)C)cc2)cc(OC)c1OC`, the AC50 under setting [1] was 10.3 µM [rising, partial curve, poor fit].

Turning to `COc1ccc(-c2c(C)nc3c(-c4ccccn4)cnn3c2N)cc1`, the AC50 under setting [1] is 2 µM [rising, full curve, poor fit].

For the compound `CCOc1cc(CNc2ccc3c(c2)CCC3)ccc1O`, the AC50 under setting [1] was 25.9 µM [rising, partial curve, poor fit].

For the compound `CN(C)N1C(N)=C(C#N)C(c2ccc(F)cc2)C2=C1CCCC2=O` (stereo not given), the AC50 under setting [1] is 5.62 µM [falling, single point].

As for `CC1=Nc2ccccc2N=C(NC(=O)CSC(=S)N2CCCCC2)C1c1ccccc1` (stereo not given), the AC50 under setting [1] is 11.2 µM [falling, single point].

With `Cc1ccc(C(=O)Nc2sc(C)c(-c3ccccc3)c2C(N)=O)cc1[N+](=O)[O-]`, under setting [1], the AC50 is 12.6 µM [rising, partial curve, poor fit]. As to `COc1ccc2c(Cl)c(C(=O)N/N=C/c3c(C)[nH]c4ccccc34)sc2c1`, the AC50 under setting [1] was 18.4 µM [falling, single point].

In the case of `O=C(Cc1ccc(F)cc1)Nc1nc(-c2ccc(F)c(F)c2)cs1`, the AC50 under setting [1] is 31.6 µM [falling, single point]. Take `CCSc1nc2n(n1)C(c1ccc(Cl)cc1Cl)C(C(=O)Nc1ccccc1C)=C(C)N2` (stereo not given): the AC50 under setting [1] was 15.8 µM [falling, partial curve, poor fit]. As for `CC[C@]12c3[nH]c4cc(CCC(=O)N(C)C)ccc4c3CCN1C(=O)[C@@H](CC(=O)NCc1cccc(C(F)(F)F)c1)C[C@@H]2C(=O)N1CCN(C(=O)c2ccco2)CC1`, the AC50 runs as follows: under setting [1], 18.4 µM [rising, single point]; under setting [2], 18.4 µM [falling, single point]. In the case of `COc1ccc(NC(=O)C/C(C)=N/NC(=O)c2ccccn2)c(OC)c1`, under setting [1], the half-maximal activity concentration (AC50) was 7.94 µM [falling, partial curve, poor fit]. Same read-out and setting: for `COc1cc(NC(C(=O)Nc2cccc(C(C)=O)c2)c2ccccc2)cc(OC)c1OC` (stereo not given) the value was 20.6 µM [rising, single point]. As for `Cc1ccc(-n2ccn(CC(=O)NCCc3ccccc3)c(=O)c2=O)cc1C`, under setting [1], the AC50 was 2.51 µM [falling, full curve]. `CCc1ccc2[nH]c(=O)c(C(c3nnnn3CCOC)N3CCN(c4ccc(F)cc4)CC3)cc2c1` (stereo not given): under setting [1], the AC50 was 29.1 µM [falling, single point]. Still for that read-out and setting: with `CCOC(=O)c1c(CNCc2ccccc2F)c2sc(C)cc2n1C` the figure was 5.8 µM [rising, partial curve, poor fit]; with `Cc1ccccc1Nc1nc(-c2cccnc2)cs1`, 35.5 µM [falling, single point]; with `OCCCN1c2ccccc2Nc2nnc(-c3ccccc3)cc21`, 7.94 µM [falling, partial curve]. Take `Cc1ccc(C(=O)OCCN(C)Cc2ccccc2)cc1`: under setting [1], the half-maximal activity concentration (AC50) is 12.6 µM [rising, partial curve, poor fit]. For `Cc1ccc(NC(=S)NNC(=O)c2cn(C)nc2C)cc1`, the AC50 under setting [1] is 8.91 µM [falling, partial curve]. Take `CCCCc1nnc(SCCSc2nnc(CCCC)n2N)n1N`: the AC50 under setting [1] was 5.8 µM [rising, full curve, poor fit]. Take `CC(=O)c1cccc(Oc2cc(NN3CCCCC3)c([N+](=O)[O-])cc2[N+](=O)[O-])c1`: under setting [1], the half-maximal activity concentration (AC50) is 31.6 µM [rising, partial curve, poor fit]. As to `O=C(c1noc2c1CCc1ccccc1-2)N1CCOCC1`, the AC50 under setting [1] is 2.59 µM [rising, full curve]. With `O=C(NNC(=O)c1ccccc1C(=O)O)c1ccc(O)cc1`, the AC50 under setting [1] is 0.2 µM [falling, full curve, poor fit].

For `O=C(Nc1nc2cc3c(cc2s1)OCCO3)C1=COCCO1`, the AC50 under setting [1] is 14.1 µM [falling, partial curve]. Same read-out and setting: for `CC(C(=O)Nc1cc(C(F)(F)F)ccc1N1CCOCC1)N1C(=O)C2CC=CCC2C1=O` (stereo not given) the value was 12.6 µM [rising, single point].

Consider `Clc1ccc2nc(NC3=NCN(CCN4CCOCC4)CN3)nc(-c3ccccc3)c2c1`, for which the AC50 under setting [1] was 4.47 µM [falling, full curve].

For the compound `Cc1ccc(-c2nc(SCC(=O)Nc3cc(S(=O)(=O)N4CCCCC4)ccc3Cl)n[nH]2)cc1`, the AC50 under setting [1] is 29.1 µM [falling, single point]. As to `CNC(=S)N/N=C/c1ccco1`, under setting [2], the AC50 was 31.6 µM [falling, partial curve, poor fit]. Turning to `Cc1c(C(=O)Nc2ccc(OC(F)(F)F)cc2)sc2nc3n(c(=O)c12)CCC3`, under setting [1], the half-maximal activity concentration (AC50) is 14.1 µM [rising, single point]. As for `COC(=O)c1sc2nc(C)cc(C)c2c1N`, the AC50 was 10 µM [falling, partial curve, poor fit] under setting [1] and 2.51 µM [rising, partial curve, poor fit] under setting [2].

For `COC(=O)C1(C(C[N+](=O)[O-])c2ccco2)C(=O)NCC1c1ccccc1` (stereo not given), the half-maximal activity concentration (AC50) under setting [1] is 35.5 µM [rising, single point]. Turning to `C=CCSc1ncccc1C(=O)NCCc1ccccc1`, the concentration at half-maximal activity (AC50) under setting [1] is 35.5 µM [rising, single point]. Take `CCCCCN=Cc1c(C)[nH]n(-c2nc3ccccc3s2)c1=O`: the AC50 under setting [1] was 7.94 µM [falling, partial curve]. As for `COC(=O)c1ccc(N=Nc2c(C)[nH]n(-c3ccccc3)c2=O)cc1`, the AC50 under setting [1] was 1.26 µM [falling, full curve]. In the case of `Cc1cc(=O)oc2cc(OCC(=O)N/N=C/c3ccccc3O)ccc12`, under setting [1], the AC50 is 3.55 µM [rising, partial curve, poor fit]. On to `COc1ccc(NC(=O)CN(c2cc(C)cc(C)c2)S(=O)(=O)c2c(C)noc2C)cc1`, for which the AC50 under setting [1] was 0.206 µM [falling, partial curve, poor fit]. Consider `OCCCNCc1ccc(N(c2ccccc2)c2ccccc2)cc1`, for which the AC50 under setting [1] was 12.6 µM [falling, single point]. Consider `CSc1nc2ccc(NC(=O)c3cccs3)cc2s1`, for which, under setting [1], the AC50 is 29.1 µM [falling, single point]. On to `CC(=O)NC(Cc1ccccc1)C(=O)NC1CCN(C(=O)c2cnccn2)CC1` (stereo not given), for which, under setting [1], the AC50 is 29.1 µM [rising, single point]. For `O=C(NCCS(=O)(=O)N1CCN(c2ccccc2)CC1)c1ccccc1F`, the concentration at half-maximal activity (AC50) under setting [1] was 7.31 µM [rising, partial curve, poor fit]. As to `C=CCC[C@@H](Cc1ccc(F)cc1)C(=O)OC[C@@H]1CCCN1C(=O)[C@@H](CC=C)CC(=O)N[C@@H](CO)Cc1ccccc1`, the AC50 under setting [1] is 29.1 µM [falling, single point]. With `CCc1cccc(NC(=O)Cc2ccc([N+](=O)[O-])cc2)c1`, the AC50 under setting [1] was 18.4 µM [rising, partial curve, poor fit]. With `Cc1nn(C)c(C(=O)Nc2ccn(Cc3ccccc3F)n2)c1[N+](=O)[O-]`, the half-maximal activity concentration (AC50) under setting [1] is 3.16 µM [rising, single point].

For `CCOc1ccc(NC(=O)CSC2=Nc3ccccc3C3=NC(CCC(=O)NCc4ccco4)C(=O)N23)cc1` (stereo not given), under setting [1], the AC50 is 35.5 µM [rising, single point].
